This passage reports binding signal results from PMC7819943, “Rice protein-binding microarrays: a tool to detect cis-acting elements near promoter regions in rice”.

Some of the results follow.

This test concerns the target T1, OsSMF1 (Oryza sativa, UniProt Q6ZLB0 1-436).
T1 sequence: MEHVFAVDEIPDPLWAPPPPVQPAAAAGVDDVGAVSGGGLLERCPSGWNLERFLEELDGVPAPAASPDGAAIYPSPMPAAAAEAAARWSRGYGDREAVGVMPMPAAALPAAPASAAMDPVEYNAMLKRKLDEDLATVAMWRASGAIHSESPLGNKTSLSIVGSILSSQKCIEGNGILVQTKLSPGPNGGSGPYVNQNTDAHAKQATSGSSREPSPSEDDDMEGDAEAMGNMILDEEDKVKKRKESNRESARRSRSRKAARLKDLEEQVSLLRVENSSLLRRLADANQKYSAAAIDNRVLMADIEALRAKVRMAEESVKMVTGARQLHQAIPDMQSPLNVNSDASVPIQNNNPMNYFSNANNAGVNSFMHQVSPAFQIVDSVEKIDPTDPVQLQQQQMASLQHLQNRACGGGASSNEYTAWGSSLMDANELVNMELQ
Briefly: protein-binding microarray (RPBM); PBS, 2% BSA, 51.3 ng/ul salmon testes DNA, 50 uM zinc acetate, 200 nM TF, 25 C, 1 h; high values mean tight binding. The conditions noted are these: protein: recombinant; tags: N-terminal polyhistidine and DsRed monomer fusion (pET32a); chain copies: 2; label: CyDye5-dUTP incorporated in the synthesized complementary strand; 3' TTTTT single-stranded linker to array surface; dsDNA, one strand shown. The procedure, abridged: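 Per-feature fluorescence intensity (arbitrary units), read on an Axon 4000B scanner, is the binding signal. Transcription factors carrying an N-terminal polyhistidine tag and DsRed fusion were expressed in E. coli BL21-CodonPlus and purified on Ni–NTA. A custom Agilent array, made double-stranded by primer extension with Cy5-dUTP and blocked with 2% BSA, was incubated with 200 nM protein in PBS, 2% BSA, salmon testes DNA and 50 µM zinc acetate at 25 °C for 1 h and then washed.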
Turning to “AGTTCATATACACCTCATCATGCTTTTCATGGATGAAAATCGGAGTCACCTAGTGCAG”, the binding signal was 3710 fluorescence intensity (a.u.).
As for “GGCCGGCGACGCTGAACGGGGTGGGGTAGTCTGCTATTTACGGAGTCACCTAGTGCAG”, the figure is 3580 fluorescence intensity (a.u.); as for “CTGGCTCTAGTGCTGTACCCATATATACCACGTAGGCAGCCGGAGTCACCTAGTGCAG”, 10500 fluorescence intensity (a.u.); as for “TGCTGAGATAGAGAGCCACTGAGTCAGATCCGACAAAAGCCGGAGTCACCTAGTGCAG”, 5890 fluorescence intensity (a.u.).
As for “GGCTATACAAGCTACCACATCAGATTTGTACTTATGTAGACGGAGTCACCTAGTGCAG”, the figure is 4530 fluorescence intensity (a.u.); as for “GAATTCACATGCCCTTGTCATCATGAATATATATTAGTGGCGGAGTCACCTAGTGCAG”, 4100 fluorescence intensity (a.u.).
As for “AATAAGACGAACGGTCAAACATGTTTTCAAAAGTCAACGGCGGAGTCACCTAGTGCAG”, the figure is 27800 fluorescence intensity (a.u.); as for “AATAGTAGGGTGTGTCACTAGTTGGCTACTTGGCTGTGCACGGAGTCACCTAGTGCAG”, 4240 fluorescence intensity (a.u.).
Regarding “GTTTGGGATGTCGCGGGGATTTAGGGGCGGTGGGTGGTTTCGGAGTCACCTAGTGCAG”, the binding signal is 4870 fluorescence intensity (a.u.).
For the sequence “TCTCTGACGGCGGTTGGTAGGGTTGGTGAGGCCGAGCGCGCGGAGTCACCTAGTGCAG”, the binding signal is 4460 fluorescence intensity (a.u.).
With “CGGCCATGGGTGAGAGAAGGAGAGGAGAGGGTTTAGGGCTCGGAGTCACCTAGTGCAG” the figure was 3580 fluorescence intensity (a.u.); with “TGACTGACGTGGGATGCTTTTGACCAACCTTTGACTGAGGCGGAGTCACCTAGTGCAG”, 9270 fluorescence intensity (a.u.).
With “CCGTTCACGAGCTCTCCGCCTCTCTCCTCCTCACCAATTTCGGAGTCACCTAGTGCAG” the figure was 20400 fluorescence intensity (a.u.); with “CGCAGTTGGCGAGCGACATGACACGGCATGTGTTGGGTGGCGGAGTCACCTAGTGCAG”, 4530 fluorescence intensity (a.u.); with “ACTATATTCCTCTCGACGGCCGTTGCCACGCACCGGCGACCGGAGTCACCTAGTGCAG”, 3570 fluorescence intensity (a.u.).
With “GAAGCTGTACGAGAACGGCAGCTACGTCATCGTGACCACGCGGAGTCACCTAGTGCAG” the figure was 9320 fluorescence intensity (a.u.); with “GGCCCGCCCCGAGCCGTCCACGTGTACAAACCTCGGAAGCCGGAGTCACCTAGTGCAG”, 19100 fluorescence intensity (a.u.); with “ATGTGCCCATCAAATCCAACGAATAAATGAGTCATCGGTTCGGAGTCACCTAGTGCAG”, 11100 fluorescence intensity (a.u.).
Regarding “CACAGTACGTGGCAGCAGGTTGCCGCGTGGCACCACCGACCGGAGTCACCTAGTGCAG”, the binding signal was 17000 fluorescence intensity (a.u.).
As for “AACCCACAGAAATAAAATGATTTTGACTCATTTTCACTTGCGGAGTCACCTAGTGCAG”, the figure is 3450 fluorescence intensity (a.u.); as for “GTGAGTTGTGTGGCCAGCGTTTCGACAGCAGCTCAAACTCCGGAGTCACCTAGTGCAG”, 22000 fluorescence intensity (a.u.).
Take “TGCAGCGTTGGACGGCCGAAAAGACCAGCTAAGCATCATTCGGAGTCACCTAGTGCAG”: the binding signal was 3200 fluorescence intensity (a.u.).
With “GCGAACAGCCTGCGAGTCGCCGTCGCCATCGTCAGCTCCCCGGAGTCACCTAGTGCAG” the figure was 4070 fluorescence intensity (a.u.); with “TTAGGATCACAGGCTTGACATGACTGTTTCTCTGTTAGGTCGGAGTCACCTAGTGCAG”, 3920 fluorescence intensity (a.u.); with “TATATTCGTGTCATTTAGATACCATACCACATCCTGCTACCGGAGTCACCTAGTGCAG”, 3240 fluorescence intensity (a.u.).
With “CGAGCTCATCCATCGGCCCTCAAATTCGCCCCGAAGCACCCGGAGTCACCTAGTGCAG” the figure was 6650 fluorescence intensity (a.u.); with “AAACCTTTTCCCATTAAGATGGCGCTGCCTACGCAGCTGGCGGAGTCACCTAGTGCAG”, 3600 fluorescence intensity (a.u.).
Regarding “AGAGCTGAGCCTTATGTGTGGTCTGTCTGTGCCTAGTCGACGGAGTCACCTAGTGCAG”, the binding signal was 48400 fluorescence intensity (a.u.).
For the sequence “GCACCGCCGCAAGGAATTCTGTTGTTTCCACCCCGCTCCCCGGAGTCACCTAGTGCAG”, the binding signal is 3200 fluorescence intensity (a.u.).
“CAATTGACGCGCCTCGGTATAACCTCACTAGCTGCGTCATCGGAGTCACCTAGTGCAG”: the binding signal was 4220 fluorescence intensity (a.u.).
As for “TTTGAGCTAGCTAGCTAGCTGAGGTGGGGCATATATATAACGGAGTCACCTAGTGCAG”, the figure is 4610 fluorescence intensity (a.u.); as for “AGCGGCCGCCGCCGCCGCTTGCAACCCAGCAAGCTAGGGTCGGAGTCACCTAGTGCAG”, 34500 fluorescence intensity (a.u.); as for “GCCCTAATGCACTCGTAATCTTGCTGTCTCTGCTTCGTTGCGGAGTCACCTAGTGCAG”, 3880 fluorescence intensity (a.u.).
Turning to “GAGTGATGATGACTAGTCTACTGGAGTAGTACTAGTGGCCCGGAGTCACCTAGTGCAG”, the binding signal is 4540 fluorescence intensity (a.u.).
As for “TCACGGTTCGACTACATCGGCTCTTCAGTGTCATCTACCTCGGAGTCACCTAGTGCAG”, the figure is 3870 fluorescence intensity (a.u.); as for “GCCCTCCCTGTCATCCCCGTCACCCATCCTGCCTGCTTTTCGGAGTCACCTAGTGCAG”, 8530 fluorescence intensity (a.u.).
With “GGTTGGTATTAACCGCTGATGGTGAATGCCAACCTCAGAACGGAGTCACCTAGTGCAG” the figure was 51200 fluorescence intensity (a.u.); with “GAACCGCACGAAATCGACCACGTCGTCGAGCTGCGCTGCGCGGAGTCACCTAGTGCAG”, 4740 fluorescence intensity (a.u.).
On to “ATCGCACAACACACCATCACCTCCCTCTATGACAGTGGGCCGGAGTCACCTAGTGCAG”, for which the binding signal was 3440 fluorescence intensity (a.u.).
As for “CAGCTACATGCCTCCTGTCTCTGTGCGTCATGCCGTCATCCGGAGTCACCTAGTGCAG”, the figure is 5260 fluorescence intensity (a.u.).
For “TAATATATATTTTCAAATTATTCAGTCTTTTGTTTGGGAGCGGAGTCACCTAGTGCAG”, the binding signal was 4980 fluorescence intensity (a.u.).
Turning to “GGCTGTCCAACTTGCCACCTGCGTGGCAGCCGCATCGGCACGGAGTCACCTAGTGCAG”, the binding signal is 4640 fluorescence intensity (a.u.).
As for “GTGCGACCCCTGCGCGCTACACGTGGCATGTCCGAATCTCCGGAGTCACCTAGTGCAG”, the binding signal is 12400 fluorescence intensity (a.u.).
As for “TTAGGCTGACGCACGAGCAAACCACTTGATAGTTGACCGCCGGAGTCACCTAGTGCAG”, the binding signal is 3890 fluorescence intensity (a.u.).
As for “GTATAAACCAAAGCCCTTGATGAAACGAATAATAAATGAACGGAGTCACCTAGTGCAG”, the binding signal is 29300 fluorescence intensity (a.u.).
As for “AACTCACTCTTACACCTACATACTCATTCATCAAATCCAACGGAGTCACCTAGTGCAG”, the figure is 3170 fluorescence intensity (a.u.); as for “CTGTGCTGCAGGTCAAAGTCATGAAAGAAGCTCCAGTGCCCGGAGTCACCTAGTGCAG”, 5440 fluorescence intensity (a.u.).
For “CACATATAGTATGGTGATAAAACGTGGGTGCATGACTCTACGGAGTCACCTAGTGCAG”, the binding signal was 3350 fluorescence intensity (a.u.).
With “CCACATCGGATGCCACGTCAGCCCTAGCCACATCAGCGCACGGAGTCACCTAGTGCAG” the figure was 38500 fluorescence intensity (a.u.).
As for “GTGTTCGACGAAATGCCAACAAGGAACGTGGTGGCGTGGACGGAGTCACCTAGTGCAG”, the figure is 3500 fluorescence intensity (a.u.); as for “TTGCTCTTGAGTCATCATCTGATCATATTCAATTCTTTATCGGAGTCACCTAGTGCAG”, 7280 fluorescence intensity (a.u.).
As for “TTGTGTAGTAAAGATCGCAAAATGACATGCCTGATAGTATCGGAGTCACCTAGTGCAG”, the figure is 3490 fluorescence intensity (a.u.).
As to “CTCCCTCCTCCTCCGTCTCCTCCTTTCATCTCTTCTTCTGCGGAGTCACCTAGTGCAG”, the binding signal was 27700 fluorescence intensity (a.u.).
On to “AATACGTCATGTAAGACTATGGACCACATCAGCTCACCACCGGAGTCACCTAGTGCAG”, for which the binding signal is 5860 fluorescence intensity (a.u.).
